Some of the results follow. The source does not settle which construct or isoform was used.

The target of the experiment is T1, ELF2 (UniProt Q15723).
T1 sequence: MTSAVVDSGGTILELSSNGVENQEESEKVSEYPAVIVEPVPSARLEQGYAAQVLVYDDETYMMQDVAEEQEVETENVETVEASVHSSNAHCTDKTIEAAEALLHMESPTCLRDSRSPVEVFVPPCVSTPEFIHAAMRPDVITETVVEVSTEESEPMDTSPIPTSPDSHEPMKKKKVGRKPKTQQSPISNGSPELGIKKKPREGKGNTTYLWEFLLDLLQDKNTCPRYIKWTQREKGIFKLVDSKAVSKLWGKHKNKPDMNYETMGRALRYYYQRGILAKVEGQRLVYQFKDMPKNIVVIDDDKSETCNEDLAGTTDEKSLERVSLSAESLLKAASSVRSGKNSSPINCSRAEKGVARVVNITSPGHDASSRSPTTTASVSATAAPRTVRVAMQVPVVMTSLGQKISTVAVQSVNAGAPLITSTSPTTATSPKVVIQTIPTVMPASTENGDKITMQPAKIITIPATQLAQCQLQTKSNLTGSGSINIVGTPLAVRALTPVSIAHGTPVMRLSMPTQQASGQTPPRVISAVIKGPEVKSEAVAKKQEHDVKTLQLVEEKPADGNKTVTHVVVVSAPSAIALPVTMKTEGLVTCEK
In words: DAPPL (digital affinity profiling via proximity ligation, sequencing). The settings on record: 10 mM Tris-HCl pH 7.5, 50 mM NaCl, 1 mM DTT, 4% glycerol, room temperature, 30 min; GST-TFs on glutathione beads, 16-mer random dsDNA library, 0.1% …; high values mean tight binding; double strand, one strand shown; scale: fold enrichment (6-mer frequency, TF over GST control).
Sequence AAAAGA registered a binding signal of 1.11.

As to CGATAA, the binding signal worked out at 1.06. For GCCTCA the value was 1.17; for GATTTT, 1.11. The same measure for GCTCTG: 1.1; for GTATTT: 1.75. For TTAGTT the value was 1.33; for CTGCAA, 1.19; for GAATCC, 1.17. Regarding AACCTT, the binding signal was 1.22.

On to TTATAG, for which the binding signal was 1.19. For CTCTTT the value was 1.38; for TCCTCA, 1.61; for CTAAAC, 1.15. For ATGGAC the value was 1.13; for CCTCGT, 1.17.

Consider ATCCAA, for which the binding signal came to 1.14.

The sequence TCTTAC gave a binding signal of 1.24. For TGTACT the value was 1.33; for ACATAT, 1.26; for TTACTG, 1.03. For TCTGTT the value was 1.38; for AGCTTT, 1.17; for AATCAT, 1.06.

In the case of CCCTAC, the binding signal worked out at 1.46.

Regarding TCTAGC, the binding signal is 1.19. With TATGGT, the binding signal came out at 1.24.

Turning to CAAATT, the binding signal turned out to be 1.16. TTAAAG yielded a binding signal of 1.09. Turning to ATCTCT, the binding signal worked out at 1.23. The same measure for TATCCG: 3.28; for TATTAT: 1.29; for CTCCCG: 1.6. The same measure for CCTATG: 1.24; for CCATTT: 1.37; for TTTCTC: 1.52. For CAATAA the value was 1.15. As to ATTTTT, the binding signal turned out to be 1.16. For AAAAGT the value was 1.02.

(Values after PMC7862700.)
